In article PMC4496050:
These are yes or no findings as the source states them, for the method shown. Binding seen in cells or lysates may run through a third protein. Some entries that bind do so weakly or less than the wild type.

Amino acid sequences for entries named in this document (tags omitted).
UniProt Q00534: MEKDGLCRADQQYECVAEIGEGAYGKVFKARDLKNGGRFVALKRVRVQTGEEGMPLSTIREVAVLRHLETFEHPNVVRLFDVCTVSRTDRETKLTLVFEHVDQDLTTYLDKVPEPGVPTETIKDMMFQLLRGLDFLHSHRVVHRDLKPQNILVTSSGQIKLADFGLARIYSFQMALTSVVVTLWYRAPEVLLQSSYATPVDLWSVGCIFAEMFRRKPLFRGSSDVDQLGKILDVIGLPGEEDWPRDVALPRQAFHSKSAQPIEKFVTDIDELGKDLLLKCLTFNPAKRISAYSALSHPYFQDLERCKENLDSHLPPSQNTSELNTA

Target: CDK6 (human (endogenous in LCL)) (UniProt Q00534)
Experiment: co-IP; IP with mouse anti-CDK2 or anti-CDK6 antibodies from 250 ug LCL extract (D4 EBNA3A-REV and EBNA3A-KO); IP buffer 50mM Tris-HCl pH 7.5, 150mM NaCl, 1mM DTT, 0.5% Nonidet P-40; 4°C overnight; protein G-Sepharose; Western blot for p57KIP2, CDK2 or CDK6; mouse IgG as control

B1: p57^KIP2 (protein, UniProt P49918 1-316)
chain: MSDASLRSTSTMERLVARGTFPVLVRTSACRSLFGPVDHEELSRELQARLAELNAEDQNRWDYDFQQDMPLRGPGRLQWTEVDSDSVPAFYRETVQVGRCRLLLAPRPVAVAVAVSPPLEPAAESLDGLEEAPEQLPSVPVPAPASTPPPVPVLAPAPAPAPAPVAAPVAAPVAVAVLAPAPAPAPAPAPAPAPVAAPAPAPAPAPAPAPAPAPAPDAAPQESAEQGANQGQRGQEPLADQLHSGISGRPAAGTAAASANGAAIKKLSGPLISDFFAKRKRSAPEKSSGDVPAPCPSPSAAPGVGSVEQTPRKRLR
binding: binds
